Test results: paper PMC8631636
Results are given in words; binding and its absence hold for the method and conditions named. A result given as binding can be weak or reduced; the word gives no strength.

The chains behind the UniProt entries cited, without tags or fusion partners. Where a name states a change or a piece, a line headed by the entry shows the natural chain unless it says otherwise.
UniProt Q8BLR2: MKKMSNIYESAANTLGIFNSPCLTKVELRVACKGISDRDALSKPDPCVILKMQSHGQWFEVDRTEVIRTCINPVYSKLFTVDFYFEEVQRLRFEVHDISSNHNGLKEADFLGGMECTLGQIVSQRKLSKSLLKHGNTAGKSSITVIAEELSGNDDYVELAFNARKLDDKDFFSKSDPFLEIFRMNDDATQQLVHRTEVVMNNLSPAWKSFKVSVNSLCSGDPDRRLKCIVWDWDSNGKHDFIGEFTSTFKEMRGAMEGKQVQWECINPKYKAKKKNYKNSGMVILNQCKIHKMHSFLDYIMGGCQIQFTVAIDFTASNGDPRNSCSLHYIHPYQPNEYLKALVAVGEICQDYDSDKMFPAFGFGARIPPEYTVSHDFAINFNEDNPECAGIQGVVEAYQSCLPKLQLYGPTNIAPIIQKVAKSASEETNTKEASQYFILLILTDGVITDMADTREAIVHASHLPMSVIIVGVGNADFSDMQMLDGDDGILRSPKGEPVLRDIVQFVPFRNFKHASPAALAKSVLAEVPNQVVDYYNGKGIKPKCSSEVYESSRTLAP

Molecular target: Cpne4 vWA domain (yeast two-hybrid bait) (UniProt Q8BLR2)
Assay: two-hybrid; Gal4 based; Cpne4 vWA domain in pGBKT7 (Y187) as bait mated with an adult mouse retina cDNA library in pGADT7 (AH109) as prey; quadruple selection (Trp, Leu, Ade, His) with X-alpha-Gal, 30°C; positive clones replated, colony PCR and Sanger sequencing

B1: Tox3 Y2H clone (amino acids 200-492) (domain or fragment, UniProt Q80W03 200-492)
chain: SPPASKSATPSPSSSINEEDADDANRAIGEKRTAPDSGKKPKTPKKKKKKDPNEPQKPVSAYALFFRDTQAAIKGQNPNATFGEVSKIVASMWDSLGEEQKQVYKRKTEAAKKEYLKALAAYRASLVSKAAAESAEAQTIRSVQQTLASTNLTSSLLLNTSLSQHGTVPASPQTLPQSLPRSIAPKPLTMRLPMSQIVTSVTIAANMPSNIGAPLISSMGTTMVGSATSTQVSPSVQTQQHQMQLQQQQQQQQQMQQMQQQQLQQHQMHQQIQQQMQQQHFQHHMQQHLQQQQ
binding: binds
